In the supplement of paper PMC4604168 (melanoma cell lines):
The other results are listed elsewhere or left out. Repeats are few or missing, and single values can be far off.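 The apoptosis fraction was the count of cleaved-PARP antibody-stained nuclei relative to all DNA-stained nuclei, imaged in 1,536-well plates. Screening doses were set so most cells survived, and baseline and induced cleaved-PARP levels vary greatly across cell lines.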

Each molecule was assayed on RPMI7951 (assay: cleaved PARP positive nuclei fraction relative to DMSO control; melanoma cells; higher = more apoptosis). Conditions: library dose: low library concentration; 72 h.

Structure (SMILES) | cleaved PARP positive nuclei fraction [%]
N#CC[C@H](C1CCCC1)n1cc(-c2ncnc3[nH]ccc23)cn1 [ruxolitinib] + C=CCNC1=C2C[C@@H](C)C[C@H](OC)[C@H](O)[C@@H](C)/C=C(\C)[C@H](OC(N)=O)[C@@H](OC)/C=C\C=C(/C)C(=O)NC(=CC1=O)C2=O [Tanespimycin] (first compound 1 µM, partner dose 0.002 µM) | 54.7
Cc1cn(-c2cc(NC(=O)c3ccc(C)c(Nc4nccc(-c5cccnc5)n4)c3)cc(C(F)(F)F)c2)cn1 [nilotinib] + COCC[n+]1c2c(n(Cc3cnccn3)c1C)C(=O)c1ccccc1C2=O [YM155] (first compound 0.2 µM, partner dose 0.0004 µM) | 261
Cc1cn(-c2cc(NC(=O)c3ccc(C)c(Nc4nccc(-c5cccnc5)n4)c3)cc(C(F)(F)F)c2)cn1 [nilotinib] + CCN(CC)CCNC(=O)c1c(C)[nH]c(/C=C2\C(=O)Nc3ccc(F)cc32)c1C [sunitinib] (first compound 0.2 µM, partner dose 0.4 µM) | 89.2
COc1cc([C@@H]2c3cc4c(cc3[C@@H](O[C@@H]3O[C@@H]5CO[C@@H](C)O[C@H]5[C@H](O)[C@H]3O)[C@H]3COC(=O)[C@H]23)OCO4)cc(OC)c1O [etoposide] + CNC(=O)c1cc(Oc2ccc(NC(=O)Nc3ccc(Cl)c(C(F)(F)F)c3)cc2)ccn1 [sorafenib] (first compound 0.02 µM, partner dose 0.4 µM) | 103
Cc1cc(Nc2cc(N3CCN(C)CC3)nc(Sc3ccc(NC(=O)C4CC4)cc3)n2)n[nH]1 [Tozasertib] + CN1CCN(c2ccc3nc(-c4c(N)c5c(F)cccc5[nH]c4=O)[nH]c3c2)CC1 [Dovitinib] (first compound 0.006 µM, partner dose 0.1 µM) | 83.9
COc1cc([C@@H]2c3cc4c(cc3[C@@H](O[C@@H]3O[C@@H]5CO[C@@H](C)O[C@H]5[C@H](O)[C@H]3O)[C@H]3COC(=O)[C@H]23)OCO4)cc(OC)c1O [etoposide] + Nc1cccc2c1CN(C1CCC(=O)NC1=O)C2=O [lenalidomide] (first compound 0.02 µM, partner dose 1 µM) | 144
CC[C@]1(O)C[C@H]2CN(CCc3c([nH]c4ccccc34)[C@@](C(=O)OC)(c3cc4c(cc3OC)N(C=O)[C@H]3[C@@](O)(C(=O)OC)[C@H](OC(C)=O)[C@]5(CC)C=CCN6CC[C@]43[C@@H]65)C2)C1 [vincristine] + Cc1cn(-c2cc(NC(=O)c3ccc(C)c(Nc4nccc(-c5cccnc5)n4)c3)cc(C(F)(F)F)c2)cn1 [nilotinib] (first compound 0.0001 µM, partner dose 0.2 µM) | 96.2
N#CC[C@H](C1CCCC1)n1cc(-c2ncnc3[nH]ccc23)cn1 [ruxolitinib] + Nc1cccc2c1CN(C1CCC(=O)NC1=O)C2=O [lenalidomide] (first compound 1 µM, partner dose 1 µM) | 641
N#CC[C@H](C1CCCC1)n1cc(-c2ncnc3[nH]ccc23)cn1 [ruxolitinib] + COCC[n+]1c2c(n(Cc3cnccn3)c1C)C(=O)c1ccccc1C2=O [YM155] (first compound 1 µM, partner dose 0.0004 µM) | 150
CCCCCCCCCCCCCCCCCCOP(=O)([O-])OC1CC[N+](C)(C)CC1 [Perifosine] + O=C(O)[C@@H]1[O][Sb](=[O])([O][Sb]2(=[O])[O][C@H]([C@H](O)CO)[C@H](O)[C@H](C(=O)O)[O]2)[O][C@H]([C@H](O)CO)[C@@H]1O [stibogluconate] (first compound 0.4 µM, partner dose 2 µM) | 108
O=c1[nH]nc(Sc2ncc([N+](=O)[O-])s2)n1-c1ccc2c(c1)OCCO2 + Nc1ncn([C@H]2C[C@H](O)[C@@H](CO)O2)c(=O)n1 [decitabine] (first compound 0.2 µM, partner dose 0.1 µM) | 53.4
O=C(Nc1cc(C(F)(F)F)cc(C(F)(F)F)c1)c1cc(Cl)ccc1O + CC(C)C[C@H](NC(=O)[C@H](Cc1ccccc1)NC(=O)c1cnccn1)B(O)O [Bortezomib] (first compound 0.016 µM, partner dose 0.001 µM) | 85.9

2 records drawn at random from the list so far:
Structure (SMILES) | cleaved PARP positive nuclei fraction [%]
Cc1cn(-c2cc(NC(=O)c3ccc(C)c(Nc4nccc(-c5cccnc5)n4)c3)cc(C(F)(F)F)c2)cn1 [nilotinib] + CCN(CC)CCNC(=O)c1c(C)[nH]c(/C=C2\C(=O)Nc3ccc(F)cc32)c1C [sunitinib] (first compound 0.2 µM, partner dose 0.4 µM) | 89.2
O=C(Nc1cc(C(F)(F)F)cc(C(F)(F)F)c1)c1cc(Cl)ccc1O + CC(C)C[C@H](NC(=O)[C@H](Cc1ccccc1)NC(=O)c1cnccn1)B(O)O [Bortezomib] (first compound 0.016 µM, partner dose 0.001 µM) | 85.9
